# Experimental data: PubChem BioAssay AID1259260 (Sanger Institute, 2017)
# Purpose: 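Essential and drug-synergistic kinases in a colorectal cancer cell line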 (primary screen)
# System: human NCI-H716 colorectal cancer cells
# Reagents: siRNA pool against human genes
# Treatment: anchor drugs BYL719 (alpelisib) 1 µM, cetuximab 5 µg/ml or trametinib 10 nM, each at a dose chosen to harm viability only mildly; DMSO vehicle for the knock-down-alone arm
# Read-out: 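Replicate-averaged viability relative to a non-targeting pool, a robust z-score for knock-down alone, and a synergy score per anchor drug versus each agent alone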
# Reading the numbers: viability robust z-score, siRNA alone: higher = more surviving cells; below -3 called essential; viability vs control, no drug: higher = more surviving cells; synergy score with BYL719: higher = stronger synergy (synthetic lethality) with drug
# Call rule: 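a knock-down counts as essential if its no-drug robust z-score is lower than -3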
# Meaning of the calls: active = essential (knock-down alone lowers viability); inactive = no essential effect
# The whole screen tested 794 reagents; this is an unselected part. 13 of them (1.6%) count as active. 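Calls reflect only knock-down without drug; synergy above 0.15 was grouped apart and does not change the call.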 Unmarked entries are inactive. Viability is capped at 1. Further read-outs or replicates are left out here. The record does not give: the amount of reagent, the time to read-out.
gene,"viability robust z-score, siRNA alone","viability vs control, no drug (fraction of control)",synergy score with BYL719
CLSPN (GeneID 63967),-0.386,0.897,0.0307
ULK4 (GeneID 54986),0.116,0.949,0.0276
AXIN2 (GeneID 8313),0.602,1,-0.173
KMT2B (GeneID 9757),0.602,1,-0.0688
ASPM (GeneID 259266),-0.332,0.903,-0.13
BCKDK (GeneID 10295),0.602,1,-0.283
ARID1A (GeneID 8289),0.602,1,-0.247
MAP3K9 (GeneID 4293),0.602,1,-0.194
TRIB3 (GeneID 57761),0.602,1,0.00923
NEK3 (GeneID 4752),-1.57,0.774,-0.0679
CHEK1 (GeneID 1111),-0.656,0.869,-0.0821
CDKL5 (GeneID 6792),-1.17,0.816,-0.0547
STK24 (GeneID 8428),-0.486,0.887,-0.225
CALM2 (GeneID 805),-0.361,0.9,0.0163
KHK (GeneID 3795),-2.44,0.684,-0.0378
TSSK4 (GeneID 283629),0.602,1,-0.0867
GRK2 (GeneID 156),0.602,1,-0.0284
RIPK3 (GeneID 11035),0.602,1,-0.283
TWF1 (GeneID 5756),-0.201,0.917,-0.343
RIPK1 (GeneID 8737),-0.396,0.896,-0.093
CAMK2N1 (GeneID 55450),0.312,0.97,-0.15
NUP62 (GeneID 23636),0.602,1,-0.283
STK17B (GeneID 9262),-0.373,0.899,-0.0845
PRKAB2 (GeneID 5565),-2.48,0.679,-0.148
PIK3CD (GeneID 5293),0.602,1,-0.0487
INSR (GeneID 3643),-1.98,0.732,-0.0779
EPHA3 (GeneID 2042),0.602,1,0.015
DGKA (GeneID 1606),0.602,1,0.0301
AK4 (GeneID 205),-1.18,0.815,-0.252
VRK2 (GeneID 7444),0.602,1,0.0914
NTRK1 (GeneID 4914),-0.178,0.919,-0.00808
RELA (GeneID 5970),0.602,1,0.102
CDKN1B (GeneID 1027),0.602,1,-0.263
PIK3R1 (GeneID 5295),-0.849,0.849,-0.092

An excerpt from above, showing only “viability vs control, no drug (fraction of control)”:
EPHA3 (GeneID 2042) = 1
DGKA (GeneID 1606) = 1
